Assay results: publication PMC12806521
These are yes or no findings as the source states them, for the method shown. For part of these data: In cells and extracts the contact can be indirect. Some entries that bind do so weakly or less than the wild type. For part of these data: Where a sequence is shown, tags or fusion partners need not be part of it. Values belong to the binder of their own block, whether it stands above or below them.

Key:
GST-IRF7 [1] = biological target: T1, GST-IRF7 (UniProt Q92985); test: pull-down; recombinant purified GST-IRF7 with total proteins from HUCCT1 cells; only the target purified
T1 sequence: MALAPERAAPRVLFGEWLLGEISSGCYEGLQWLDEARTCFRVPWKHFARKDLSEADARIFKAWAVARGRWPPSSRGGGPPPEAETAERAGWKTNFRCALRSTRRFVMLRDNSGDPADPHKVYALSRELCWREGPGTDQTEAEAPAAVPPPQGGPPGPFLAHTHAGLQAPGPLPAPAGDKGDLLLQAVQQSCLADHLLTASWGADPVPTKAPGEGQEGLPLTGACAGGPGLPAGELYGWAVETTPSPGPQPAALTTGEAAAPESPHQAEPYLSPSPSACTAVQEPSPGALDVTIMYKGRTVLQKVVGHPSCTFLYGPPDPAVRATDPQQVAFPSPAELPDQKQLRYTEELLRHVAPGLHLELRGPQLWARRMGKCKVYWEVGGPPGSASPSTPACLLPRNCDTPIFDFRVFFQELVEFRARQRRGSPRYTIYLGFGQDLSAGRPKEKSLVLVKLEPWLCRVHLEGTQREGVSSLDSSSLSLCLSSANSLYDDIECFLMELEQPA

GST-IRF7 [2] = biological target: T1, GST-IRF7; test: pull-down; about 10 µg GST-IRF7 on glutathione-Sepharose beads, equimolar (or 10-15 µg) purified His-tagged FXYD3; 50 mM Tris-HCl pH 7.5, 150 mM NaCl, 1 mM EDTA, 1% Triton X-100, 1 mM DTT; 4 °C, 2-3 h; western blot with anti-FXYD3 and anti-GST; both purified
[3] = biological target: T2, FXYD3 (endogenous, HUCCT1 cells) (human (endogenous in HUCCT1)) (UniProt Q14802); test: co-IP; cytoplasmic fraction of HUCCT1 cells; immunoprecipitation with antibodies against FXYD3, IRF7 or control rabbit IgG, immunoblot with anti-FXYD3 and anti-IRF7
T2 sequence: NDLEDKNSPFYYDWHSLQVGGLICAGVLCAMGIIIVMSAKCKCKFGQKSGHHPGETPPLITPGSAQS

[4] = biological target: T2, FXYD3 (endogenous, HUCCT1 cells) (human (endogenous in HUCCT1)); test: co-IP; endogenous proteins, HUCCT1 cells; lysates incubated with anti-FXYD3 or anti-IRF7 antibodies and protein G magnetic beads, immunoblot; also in IFN-treated cells (IFN-1 stimulation augmented the interaction) and after anifrolumab (suppressed the interaction)
[5] = biological target: T3, HA-tagged FXYD3 (full length) (UniProt Q14802); test: co-IP; epitope-tagged plasmids in HEK293T cells; lysis buffer 5% glycerol, 1% Nonidet P-40, 1 mM EDTA, 100 mM NaCl, 20 mM Tris-HCl pH 8.0; overnight at 4 °C with anti-FLAG M2 beads or anti-HA beads; immunoblot with anti-HA or anti-Flag
T3 sequence: T2 sequence

Flag-FXYD3 = biological target: T4, Flag-FXYD3 (UniProt Q14802); test: as above
T4 sequence: T2 sequence

B1: FXYD3 (endogenous, HUCCT1 cells) (protein, UniProt Q14802 21-87)
chain: T2 sequence
- binding (GST-IRF7 [1]): binds

B4: FLAG-tagged IRF7 (protein, UniProt Q92985 1-503)
chain: T1 sequence
- binding [5]: binds

B5: HA-IRF7 (protein, UniProt Q92985 1-503)
chain: T1 sequence
- binding (Flag-FXYD3): binds

More lines, now with the values ahead:

- binding (GST-IRF7 [2]): binds
B2: His-tagged FXYD3 (protein, UniProt Q14802 21-87)
chain: T2 sequence

- binding [3]: binds
- binding [4]: binds
B3: IRF7 (endogenous, HUCCT1 cells) (protein, UniProt Q92985 1-503)
chain: T1 sequence
